Laboratory results as given in paper PMC3662672.
Results are given in words; binding and its absence hold for the method and conditions named. In cells and extracts the contact can be indirect.

Chains of the proteins cited; added tags and fusions are not shown.
UniProt Q9Y6K9: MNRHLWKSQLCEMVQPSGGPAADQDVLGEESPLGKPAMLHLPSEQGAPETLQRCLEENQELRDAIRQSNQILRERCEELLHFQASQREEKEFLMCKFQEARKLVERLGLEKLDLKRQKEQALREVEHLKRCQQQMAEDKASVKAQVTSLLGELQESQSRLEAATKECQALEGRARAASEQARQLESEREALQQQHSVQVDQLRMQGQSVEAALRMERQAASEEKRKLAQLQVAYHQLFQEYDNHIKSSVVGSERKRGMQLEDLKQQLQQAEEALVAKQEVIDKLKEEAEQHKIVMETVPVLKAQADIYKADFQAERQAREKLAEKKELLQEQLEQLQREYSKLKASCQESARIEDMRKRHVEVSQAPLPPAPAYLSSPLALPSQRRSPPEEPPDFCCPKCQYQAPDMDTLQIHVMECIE

Target: Flag-NEMO (NF-kappa-B essential modulator) (UniProt Q9Y6K9)
Assay: co-IP; HEK293T cells co-transfected with UCHL1 and Flag-TRAF3, Flag-TRAF6 or Flag-NEMO; lysed after 48 h in NP40 buffer; immunoprecipitation with Flag antibody and protein A/G agarose at 4°C; co-precipitating UCHL1 detected by western blot

Substance: ubiquitin carboxyl-terminal hydrolase L1 (UCHL1) (from UniProt P09936-1 1-223) (enzyme)
- binding: no binding
